# This is one part of the list.
# What was measured:
# Test in all cases: glycan array binding signal (z-score within array); higher = stronger binding
# Conditions in all cases: glycan notation: IUPAC condensed, linker removed
# [1] = biological target: Neu5Ac(a2-3)Gal(b1-4)GlcNAc(b1-3)Gal(b1-4)GlcNAc(b1-2)Man(a1-3)[Neu5Ac(a2-3)Gal(b1-4)GlcNAc(b1-3)Gal(b1-4)GlcNAc(b1-2)Man(a1-6)]Man(b1-4)GlcNAc(b1-4)GlcNAc
# How it was run: (§1)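 The binding signal is a Z-score computed within each array and averaged over linkers. Arrays of the same protein sequence at different concentrations or buffers were also averaged together. Data originate from 3228 arrays in the Consortium for Functional Glycomics database, kept only where the protein sequence was available.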
# [2] = biological target: Neu5Ac(a2-3)Gal(b1-4)GlcNAc(b1-3)Gal(b1-4)GlcNAc(b1-3)Gal(b1-4)GlcNAc
# How it was run: as §1
# [3] = biological target: Neu5Ac(a2-3)Gal(b1-4)GlcNAc(b1-3)Gal(b1-4)GlcNAc(b1-3)Gal(b1-4)GlcNAc(b1-2)Man(a1-3)[Neu5Ac(a2-3)Gal(b1-4)GlcNAc(b1-3)Gal(b1-4)GlcNAc(b1-3)Gal(b1-4)GlcNAc(b1-2)Man(a1-6)]GalNAc
# How it was run: as §1
# [4] = biological target: Neu5Ac(a2-3)Gal(b1-4)GlcNAc(b1-3)Gal(b1-4)GlcNAc(b1-3)GalNAc
# How it was run: as §1
# [5] = biological target: Neu5Ac(a2-3)Gal(b1-4)GlcNAc(b1-3)Gal(b1-4)GlcNAc(b1-3)[Neu5Ac(a2-3)Gal(b1-4)GlcNAc(b1-3)Gal(b1-4)GlcNAc(b1-6)]GalNAc
# How it was run: as §1
# [6] = biological target: Neu5Ac(a2-3)Gal(b1-4)GlcNAc(b1-3)Gal(b1-4)GlcNAc(b1-6)[Gal(b1-3)]GalNAc
# How it was run: as §1
# [7] = biological target: Neu5Ac(a2-3)Gal(b1-4)GlcNAc(b1-3)Gal(b1-4)[Fuc(a1-3)]GlcNAc
# How it was run: as §1
# [8] = biological target: Neu5Ac(a2-3)Gal(b1-4)GlcNAc(b1-3)GalNAc
# How it was run: as §1
# [9] = biological target: Neu5Ac(a2-3)Gal(b1-4)GlcNAc(b1-3)[Neu5Ac(a2-3)Gal(b1-4)GlcNAc(b1-6)]GalNAc
# How it was run: as §1
# [10] = biological target: Neu5Ac(a2-3)Gal(b1-4)GlcNAc(b1-6)GalNAc
# How it was run: as §1
# [11] = biological target: Neu5Ac(a2-3)Gal(b1-4)GlcNAc(b1-6)[Gal(b1-3)]GalNAc
# How it was run: as §1
# [12] = biological target: Neu5Ac(a2-3)Gal(b1-4)GlcNAc(b1-6)[Neu5Ac(a2-3)Gal(b1-3)]GalNAc
# How it was run: as §1
# [13] = biological target: Neu5Ac(a2-3)Gal(b1-4)GlcNAc6S
# How it was run: as §1
# [14] = biological target: Neu5Ac(a2-3)Gal(b1-4)[Fuc(a1-3)]GlcNAc
# How it was run: as §1
# [15] = biological target: Neu5Ac(a2-3)Gal(b1-4)[Fuc(a1-3)]GlcNAc(b1-2)Man
# How it was run: as §1
# [16] = biological target: Neu5Ac(a2-3)Gal(b1-4)[Fuc(a1-3)]GlcNAc(b1-3)Gal
# How it was run: as §1
# [17] = biological target: Neu5Ac(a2-3)Gal(b1-4)[Fuc(a1-3)]GlcNAc(b1-3)Gal(b1-4)GlcNAc
# How it was run: as §1
# [18] = biological target: Neu5Ac(a2-3)Gal(b1-4)[Fuc(a1-3)]GlcNAc(b1-3)Gal(b1-4)[Fuc(a1-3)]GlcNAc(b1-3)Gal(b1-4)[Fuc(a1-3)]GlcNAc
# How it was run: as §1
# [19] = biological target: Neu5Ac(a2-3)Gal(b1-4)[Fuc(a1-3)]GlcNAc(b1-3)GalNAc
# How it was run: as §1
# [20] = biological target: Neu5Ac(a2-3)Gal(b1-4)[Fuc(a1-3)]GlcNAc(b1-6)[Gal(b1-3)]GalNAc
# How it was run: as §1
# [21] = biological target: Neu5Ac(a2-3)Gal(b1-4)[Fuc(a1-3)]GlcNAc(b1-6)[Neu5Ac(a2-3)Gal(b1-3)]GalNAc
# How it was run: as §1
# [22] = biological target: Neu5Ac(a2-3)Gal(b1-4)[Fuc(a1-3)]GlcNAc6S
# How it was run: as §1
# [23] = biological target: Neu5Ac(a2-3)Gal6S(b1-4)GlcNAc
# How it was run: as §1
binder,measurement,setting,value
"HA-00510 (Pseudomonas aeruginosa), Q02V39_PSEAB (protein) GVPIVNIATPNGAGLSNNHFRDYNVGANGLILNNATGKTQGTQLGGIILGNPNLKGQAAQVILNQVTGGNRSTLAGYTEVAGQSARVIVANPHGITCQGCGFINTPRATLTTGKPIMDGQRLERFQVDGGDIVVEGAELNVGNLEQFDLITRSAKLNAKLYAKNLNIVTGRNDVQADSLQATPRAADGSEKPQLAIDSSALGGMYAGAIRLVGTEQGVGVKLAGDMAASGGDIRIDASGKLSLAQASSQGDLKIAAQAVELNGKTYAGGSAEIRSAEELVNRQS",glycan array binding signal (z-score),[1],0.962
same,glycan array binding signal (z-score),[2],-0.41
same,glycan array binding signal (z-score),[3],3.77
same,glycan array binding signal (z-score),[4],-0.205
same,glycan array binding signal (z-score),[5],-0.447
same,glycan array binding signal (z-score),[6],-0.893
same,glycan array binding signal (z-score),[7],-0.182
same,glycan array binding signal (z-score),[8],0.71
same,glycan array binding signal (z-score),[9],-0.496
same,glycan array binding signal (z-score),[10],0.14
same,glycan array binding signal (z-score),[11],1.16
same,glycan array binding signal (z-score),[12],-0.64
same,glycan array binding signal (z-score),[13],-0.604
same,glycan array binding signal (z-score),[14],0.033
same,glycan array binding signal (z-score),[15],-1.16
same,glycan array binding signal (z-score),[16],-0.741
same,glycan array binding signal (z-score),[17],1
same,glycan array binding signal (z-score),[18],-0.98
same,glycan array binding signal (z-score),[19],2.86
same,glycan array binding signal (z-score),[20],-0.302
same,glycan array binding signal (z-score),[21],0.217
same,glycan array binding signal (z-score),[22],-1.9
same,glycan array binding signal (z-score),[23],-0.228

# In a second layout: results already given
binder	measurement	setting	value
HA-00510 (Pseudomonas aeruginosa), Q02V39_PSEAB (protein) GVPIVNIATPNGAGLSNNHFRDYNVGANGLILNNATGKTQGTQLGGIILGNPNLKGQAAQVILNQVTGGNRSTLAGYTEVAGQSARVIVANPHGITCQGCGFINTPRATLTTGKPIMDGQRLERFQVDGGDIVVEGAELNVGNLEQFDLITRSAKLNAKLYAKNLNIVTGRNDVQADSLQATPRAADGSEKPQLAIDSSALGGMYAGAIRLVGTEQGVGVKLAGDMAASGGDIRIDASGKLSLAQASSQGDLKIAAQAVELNGKTYAGGSAEIRSAEELVNRQS	glycan array binding signal (z-score)	[1]	0.962
same	glycan array binding signal (z-score)	[19]	2.86

# From the supplement of paper PMC8728848
